In publication PMC9646525, “Cryo-EM structure of the SEA complex” (Nature, 2022):
These are yes or no findings as the source states them, for the method shown. Binding seen in cells or lysates may run through a third protein. Some results given as binding are weak or reduced against the parent protein; the word gives no strength.

The chains behind the UniProt entries cited, without tags or fusion partners.
UniProt P47170: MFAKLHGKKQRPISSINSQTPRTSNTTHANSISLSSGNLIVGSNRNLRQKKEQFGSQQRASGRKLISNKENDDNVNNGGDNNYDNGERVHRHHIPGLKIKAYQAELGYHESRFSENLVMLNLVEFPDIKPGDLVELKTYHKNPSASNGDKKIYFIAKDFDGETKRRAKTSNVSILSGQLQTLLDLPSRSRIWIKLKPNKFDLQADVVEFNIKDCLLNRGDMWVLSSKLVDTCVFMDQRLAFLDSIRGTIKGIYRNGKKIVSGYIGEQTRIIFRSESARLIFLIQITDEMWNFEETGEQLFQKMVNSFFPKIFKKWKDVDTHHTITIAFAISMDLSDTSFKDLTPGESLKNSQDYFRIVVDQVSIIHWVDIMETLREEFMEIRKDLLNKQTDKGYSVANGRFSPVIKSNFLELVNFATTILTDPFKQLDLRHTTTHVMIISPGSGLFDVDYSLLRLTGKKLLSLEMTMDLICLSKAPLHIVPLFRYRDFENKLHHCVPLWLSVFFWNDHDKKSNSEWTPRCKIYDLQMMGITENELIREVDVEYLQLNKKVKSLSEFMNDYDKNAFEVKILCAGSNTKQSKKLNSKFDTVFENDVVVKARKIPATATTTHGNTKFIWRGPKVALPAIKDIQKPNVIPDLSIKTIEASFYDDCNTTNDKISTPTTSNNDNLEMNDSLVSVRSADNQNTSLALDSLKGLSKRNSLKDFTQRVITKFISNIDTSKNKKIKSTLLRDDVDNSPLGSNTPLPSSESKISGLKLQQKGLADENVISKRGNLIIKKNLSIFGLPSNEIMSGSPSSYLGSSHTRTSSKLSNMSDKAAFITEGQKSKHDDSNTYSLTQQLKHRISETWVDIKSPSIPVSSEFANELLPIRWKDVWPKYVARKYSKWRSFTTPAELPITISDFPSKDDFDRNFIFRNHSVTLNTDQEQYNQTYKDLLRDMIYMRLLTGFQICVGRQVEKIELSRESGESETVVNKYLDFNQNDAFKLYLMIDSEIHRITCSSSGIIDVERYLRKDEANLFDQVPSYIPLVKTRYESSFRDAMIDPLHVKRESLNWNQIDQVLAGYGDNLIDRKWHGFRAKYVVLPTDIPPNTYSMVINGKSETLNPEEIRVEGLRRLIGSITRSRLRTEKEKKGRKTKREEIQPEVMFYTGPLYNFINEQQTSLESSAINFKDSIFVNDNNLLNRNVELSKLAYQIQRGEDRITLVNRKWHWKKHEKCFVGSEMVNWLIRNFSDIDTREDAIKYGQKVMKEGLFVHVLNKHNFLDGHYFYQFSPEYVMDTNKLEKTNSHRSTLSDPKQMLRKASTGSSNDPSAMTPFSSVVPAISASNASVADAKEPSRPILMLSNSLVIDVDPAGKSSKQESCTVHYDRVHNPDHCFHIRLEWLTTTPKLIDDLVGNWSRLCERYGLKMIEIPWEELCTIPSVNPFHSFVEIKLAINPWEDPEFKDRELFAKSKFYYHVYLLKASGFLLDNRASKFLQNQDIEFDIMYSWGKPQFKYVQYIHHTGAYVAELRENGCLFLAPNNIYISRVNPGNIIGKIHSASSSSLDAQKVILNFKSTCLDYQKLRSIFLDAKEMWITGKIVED

Molecular target: Sea1-TAP (S. cerevisiae) (UniProt P47170)
Test: co-IP; SEAC and isolated wing purified using a TAP tag in Sea1 (Sea1-TAP strains), Coomassie-stained SDS-PAGE

B1: Npr2 (natural protein, UniProt P39923 1-615, looked up)
chain: MLSYFQGFVPIHTIFYSVFHPTEGSKIKYEFPPNNLKNHGINFNTFKNYIIPKPILCHKLITFKYGTYRIVCYPVTINSPIYARNFFSFNFVFVFPYDCETSPYEPAITRLGKMFKVLEEQNQLLSKSERDPVFFDLKVLENSTTTPSTAGPSSTPNPSSNTTPTHPTSEKDTKDMRSSRYSDLIKDLGLPQSAFSIQDLLMRIFQDLNNYSECLIPIDEGNAVDIKIFPLLRPPTTCVSLEDVPLSSVNLKKIIDVNWDPTMMSIVPYIDGLNSIAKISKLSNSDPGLVIECIRHLIYYKCVTLSDIFQFSNIYAPSSLIRNFLTDPLMASDCQSYVTFPEVSKISNLPLNKSLGSGDQDSPSFSVRRKSKSSSIPSNPDSRTTSFSSTSRVSQNSSLNSSFSSIYKDWRQSQTSCSSSNIHVINNRNRFLPTRSCLFDLYRSLSQGQTLKTWYESKYMILKENNIDIRRFITFGLEKRIIYRCYSFPVMINAGSREPKEMTPIITKDLVNNDKLLEKRNHNHLLSATGSRNTAQSGNLKPERPSKVSFEMQRVSSLATGKSTMPKLSDEEEGILEESIRNAETFDKICVLLSKPKLEVESYLNELGEFKVINS
notes: Npr2, S. cerevisiae, endogenous subunit of the SEAC (SEACIT, wing); Native protein of the purified complex; two copies in the SEAC; source: endogenous, yeast cells expressing Sea4-TAP or Sea1-TAP; in lysate and co-purified with the tagged subunit (IgG Dynabeads, TEV elution)
  binding: binds
